# Primary screen of a compound library

By UniProt entry, the sequences of proteins in these tests, tags left out.
UniProt E9BF75, entry or part of it: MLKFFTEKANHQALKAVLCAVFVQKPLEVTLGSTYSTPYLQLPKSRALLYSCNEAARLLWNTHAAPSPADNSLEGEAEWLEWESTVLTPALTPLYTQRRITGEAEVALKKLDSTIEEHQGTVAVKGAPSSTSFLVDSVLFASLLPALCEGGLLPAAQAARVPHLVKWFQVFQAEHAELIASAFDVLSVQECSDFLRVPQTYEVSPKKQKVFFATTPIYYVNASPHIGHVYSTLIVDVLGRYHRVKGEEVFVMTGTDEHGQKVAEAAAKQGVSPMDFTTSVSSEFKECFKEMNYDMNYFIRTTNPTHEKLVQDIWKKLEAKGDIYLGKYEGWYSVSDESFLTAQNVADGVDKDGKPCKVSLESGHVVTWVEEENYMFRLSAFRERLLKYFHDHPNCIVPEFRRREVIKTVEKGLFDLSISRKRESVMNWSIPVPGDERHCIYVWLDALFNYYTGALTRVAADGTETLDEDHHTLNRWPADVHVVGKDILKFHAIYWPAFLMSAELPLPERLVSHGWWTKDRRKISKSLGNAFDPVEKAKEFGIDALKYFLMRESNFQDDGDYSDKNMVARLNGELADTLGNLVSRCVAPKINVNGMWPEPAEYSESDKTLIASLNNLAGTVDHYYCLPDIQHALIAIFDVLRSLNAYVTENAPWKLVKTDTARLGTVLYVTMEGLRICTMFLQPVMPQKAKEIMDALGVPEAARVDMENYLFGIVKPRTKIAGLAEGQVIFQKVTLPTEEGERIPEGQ

Data taken from ChEMBL document CHEMBL3988442, “University of Dundee, Small-Polar-MMV Screening Library” (2021).

All values are in %.
The record does not define 0% and 100%; most values in the screen are far below 50% and negative numbers occur (in some assays of this library far below -100).
Compounds were drawn at random from those tested, without regard to their results.

Mtb heat-shock: 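Assay on Mycobacterium tuberculosis, filed only as a heat shock assay from Cornell; the read-out is not stated. The concentration is filed as 10 mM, unlikely as a test dose, so the dose is not known. Direction is inferred from retests: higher values go with stronger inhibition. Of about 69,000 compounds tested this way, about 930 (1.4%) reached 50% or more in at least one test.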
LdMetRS: 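Methionyl-tRNA synthetase (putative), Leishmania donovani (UniProt E9BF75). Primary screen of methionyl-tRNA synthetase; the read-out is not stated. The test concentration is not given. The values are filed as inhibition. Of about 68,000 compounds tested this way, about 24 (0.035%) reached 50% or more in at least one test.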
Mtb growth Cornell: 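Whole-cell assay for inhibitors of Mycobacterium tuberculosis growth, labelled Cornell in the record; the read-out is not stated. The concentration is filed as 10 mM, unlikely as a test dose, so the dose is not known. The record gives no direction; compounds strong in two other growth screens of this library score well above the rest, so higher reads as stronger inhibition. Of about 53,000 compounds tested this way, about 900 (1.7%) reached 50% or more in at least one test.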

{"compound": "CC(NC(=O)CCCc1ccc(Cl)cc1)c1nnn[nH]1", "stereo": "centres undefined", "Mtb heat-shock": -1.762, "LdMetRS": 11.17, "Mtb growth Cornell": -1.473}
{"compound": "Cc1nc(CNC(C)c2cccc(S(=O)(=O)N(C)C)c2)no1", "stereo": "centres undefined", "Mtb heat-shock": 4.74, "LdMetRS": 13.86, "Mtb growth Cornell": -20.56}
{"compound": "O=C(CCc1ccc(F)cc1)NS(=O)(=O)c1ccc2c(c1)OCCO2", "Mtb heat-shock": -6.592, "LdMetRS": 4.178, "Mtb growth Cornell": -7.113}
{"compound": "COc1ccc(CC(=O)Nc2cccnc2N2CCCC2)cc1OC", "Mtb heat-shock": -16.55, "LdMetRS": 14.42}
{"compound": "CC(C)[C@@H]1CN(C(=O)C2(c3ccccc3)CCN(C)CC2)C[C@H]1C(=O)O", "Mtb heat-shock": -1.851, "LdMetRS": 9.422, "Mtb growth Cornell": -3.235}
{"compound": "O=C(O)C(F)(F)F.O=S(=O)(C1CC1)N1CCC2(CCCN(c3ncccn3)C2)C1", "stereo": "centres undefined", "Mtb heat-shock": 1.016, "Mtb growth Cornell": -46.63}
{"compound": "CC(C)NC(=O)c1ccc(NC(=O)NC(C)c2ccccn2)cc1", "stereo": "centres undefined", "Mtb heat-shock": -19.01, "LdMetRS": -4.348}
{"compound": "O=C(O)C(F)(F)F.[H][C@@]12CCN(Cc3ccsc3)C[C@@]1([H])[C@H](C(=O)NCC1CC1)CCO2", "Mtb heat-shock": 4.614, "Mtb growth Cornell": -12.33}
{"compound": "CC(C)C(C(=O)N1CCCN(Cc2cnn(C)c2)CC1)n1cncn1", "stereo": "centres undefined", "Mtb heat-shock": 1.332, "LdMetRS": 5.512, "Mtb growth Cornell": -9.272}
{"compound": "Cc1cc(C)nc(N2CCC(c3ccnc(N(C)C)n3)CC2)n1", "Mtb heat-shock": -6.702, "LdMetRS": 18.73, "Mtb growth Cornell": 18.3}
{"compound": "CC1=N[C@@]2(CC[C@@H]3CN(S(=O)(=O)CC(C)C)C[C@@H]32)C(=O)N1C", "LdMetRS": 12.38}
{"compound": "CCCNC(=O)c1ccc(S(=O)(=O)NCC2(O)CCCNC2)cc1", "stereo": "centres undefined", "Mtb heat-shock": -5.084, "LdMetRS": 6.267, "Mtb growth Cornell": 16.25}
{"compound": "COCCN(C)Cc1nc(-c2cccc(F)c2F)oc1C", "Mtb heat-shock": 9.929, "LdMetRS": 10.59, "Mtb growth Cornell": -1.123}
{"compound": "CNC(=O)C1CN(c2cc(C)ncn2)CCN1Cc1ccccc1", "stereo": "centres undefined", "Mtb heat-shock": -7.841, "LdMetRS": 0.9524, "Mtb growth Cornell": -35.53}
{"compound": "[H][C@]12CC[C@]([H])(CN(C(=O)c3sccc3S(N)(=O)=O)C1)N(C)C2=O", "Mtb heat-shock": -8.747, "Mtb growth Cornell": 12.08}
{"compound": "COc1cnc(N2CCCC(c3ncc[nH]3)C2)nc1", "stereo": "centres undefined", "Mtb heat-shock": -1.414, "LdMetRS": 14.4}
{"compound": "O=C(C1CCCC1)N1C[C@@H](c2ccsc2)[C@@H]2CN(C3CCCC3)CC[C@@H]21", "LdMetRS": 19.62}
{"compound": "O=C(O)c1ccc(F)c(S(=O)(=O)Nc2ccc(-n3cccn3)c(Cl)c2)c1", "Mtb heat-shock": -7.291, "LdMetRS": 14.63, "Mtb growth Cornell": 14.47}
{"compound": "O=C(c1cc2c(s1)CCC2)N1CCCC(c2cnccn2)C1", "stereo": "centres undefined", "Mtb heat-shock": -23.29, "LdMetRS": 12.66, "Mtb growth Cornell": -2.707}
{"compound": "CSc1ccc(C(C(=O)O)N2CCC(CO)CC2)cc1", "stereo": "centres undefined", "Mtb heat-shock": -8.225, "LdMetRS": 8.75, "Mtb growth Cornell": -32.34}
{"compound": "Cc1nnc(CN(C)C2CCN(CCc3ccccn3)CC2)o1", "Mtb heat-shock": -3.984, "LdMetRS": 16.2}
{"compound": "Cc1cccc(CN2C[C@@H]3COC[C@]3(CNC(=O)C3CC3)C2)c1", "LdMetRS": 12.32}
{"compound": "Cc1cccc(CN2CCCC[C@H]3CN(c4ncccn4)C[C@H]32)c1", "LdMetRS": 4.787}
{"compound": "COc1cc(N2C[C@H]3CN(CC(=O)N(C)C)C(=O)[C@H]3C2)ncn1", "LdMetRS": 3.261}
{"compound": "Cc1ccc(-c2nc(CN3CCOCS3(=O)=O)c(C)o2)cc1", "Mtb heat-shock": -2.36, "LdMetRS": 6.849, "Mtb growth Cornell": 18.25}
{"compound": "CCN(c1ccc(C(=O)NCc2cc[nH]n2)cc1)C(C)C", "Mtb heat-shock": -25.44, "LdMetRS": 6.407}
{"compound": "CC(C)N1CCn2c(nc3cc(C(N)=O)ccc32)C1", "Mtb heat-shock": 2.674, "LdMetRS": 10.37}
{"compound": "Cc1ccc2oc(CNC(C)c3nnc4n3CCCC4)cc2c1", "stereo": "centres undefined", "Mtb heat-shock": -2.405, "LdMetRS": 12.38, "Mtb growth Cornell": 28.33}
{"compound": "CCOCC(=O)Nc1ncn(Cc2cccc(Br)c2)n1", "Mtb heat-shock": -16.14, "LdMetRS": -1.282, "Mtb growth Cornell": -12.98}
{"compound": "O=C(N1CCCC1)N1CCC[C@]2(C[C@@H](Oc3ncccc3F)CO2)C1.O=C(O)C(F)(F)F", "Mtb heat-shock": -4.547, "Mtb growth Cornell": -21.49}

Some entries from above, unchanged:

Compound,Mtb heat-shock,LdMetRS,Mtb growth Cornell
CC(NC(=O)CCCc1ccc(Cl)cc1)c1nnn[nH]1 (centres undefined),-1.762,11.17,-1.473
CC(C)[C@@H]1CN(C(=O)C2(c3ccccc3)CCN(C)CC2)C[C@H]1C(=O)O,-1.851,9.422,-3.235
Cc1nc(CNC(C)c2cccc(S(=O)(=O)N(C)C)c2)no1 (centres undefined),4.74,13.86,-20.56